Patent US8759010B2, “Host cell kinases as targets for antiviral therapies against HCV infection” (INSERM (Institut National de la Sante et de la Recherche …, priority 2008, dated 2014)
Where two headings read alike, the source gives them in different places. At least one structure is not confirmed: it was looked up by name or label, or the drawing left a doubt.

What was measured:
[1] = tested on: HCVcc Luc-Jc1, genotype 2a/2a; type: cell-based, HCV
[2] = tested on: HCVcc JFH1; assay: HCVcc infection of Huh7.5.1 cells, luciferase reporter or RT-PCR of HCV RNA (Example 1); type: cell-based; conditions: dose-dependent
Description: Bicistronic plasmid pFK-Luc-Jc1 (Koutsoudakis, 2006) encodes a luciferase reporter gene and a chimeric HCV genome designated Jc1 which consists of J6CF and JFH1 segments. In vitro HCV RNA synthesis and RNA transfection were carried out as previously described (Wakita, 2005). Culture supernatants from transfected cells were cleared and concentrated as previously described using an Amicon Ultra 15 (Millipore, USA) and used directly or were stored at 4° C. or −80° C. Viruses were titrered by using the limiting dilution assay on Huh7.5.1 cells with a few minor modifications and TCID50 values were calculated based on a method previously described (Lindenbach, 2005).
All inhibitors used in this study were obtained from LC Laboratories (USA). Before use, they were dissolved in DMSO and diluted in Huh7.5.1 cell culture medium (Zhong, 2005). Following incubation, HCVpp entry and HCVcc infection were assessed by luciferase reporter gene expression or RT-PCR of HCV RNA in cells as previously reported (Pestka, 2007; Zeisel, 2007).

[3] = tested on: HCVpp (genotype 1b) bearing envelope glycoproteins from HCV strains VD, VH, VK, VN; assay: Entry of patient-derived HCVpp in Huh7.5 cells; type: cell-based; conditions: 10 μM, 1 h prior to infection, FIG. 10B
[4] = tested on: HCVpp H77C, genotype 1a; assay: HCVpp entry in hepatoma cells, luciferase reporter (Example 1); type: cell-based, HCV
[5] = tested on: HCVpp H77C; genotype 1a; assay: HCVpp entry in Huh7.5 cells (Example 2); type: cell-based, HCV; conditions: 10 μM, 1 h pretreatment and 6 h during infection, FIG. 7C

Cc1nc(Nc2ncc(C(=O)Nc3c(C)cccc3Cl)s2)cc(N2CCN(CCO)CC2)n1 [Dasatinib]
HCVcc infection ([1]; HCVcc Luc-Jc1, inhibitor added 1 h prior to infection, dose-dependent, FIG. 9A): markedly inhibited | Inhibitory effect on HCVcc infection by detection of viral RNA using RT-PCR ([1]; data not shown): confirmed | HCVcc infection ([2]; JFH-1 strain, genotype 2a, hepatoma cells): markedly inhibit | Entry of patient-derived HCVpp in Huh7.5 cells [3]: markedly inhibited | HCVpp entry ([4]; H77c strain, genotype 1a, hepatoma cells, dose-dependent): markedly inhibit

COC[C@H]1OC(=O)c2coc3c2[C@@]1(C)C1=C(C3=O)[C@@H]2CCC(=O)[C@@]2(C)C[C@H]1OC(C)=O [Wortmannin]
Entry of patient-derived HCVpp in Huh7.5 cells [3]: did not result in a reproducible inhibition

COc1cc2c(Nc3ccc(Br)cc3F)ncnc2cc1OCC1CCN(C)CC1 [Vandetanib]
HCVcc infection ([2]; HCVcc JFH1, Huh7.5.1 cells, 1 μM or 10 μM inhibitor, FIG. 3): markedly inhibit | HCVpp entry ([4]; HCVpp H77C genotype 1a, Huh7.5.1 cells, 1 μM or 10 μM inhibitor, 1 h prior to 3 h post-infection, FIG. 3): markedly inhibit

c1cc(-c2cnn3cc(-c4ccc(OCCN5CCCCC5)cc4)cnc23)ccn1 [Dorsomorphin]
HCVcc infection ([1]; Huh7.5.1 cells, 10 μM, 1 h pretreatment and 6 h during infection, FIG. 7D): inhibited | HCVpp entry [5]: markedly inhibited
